Results as given in the supplement of paper PMC12593923.
Where a name gives a salt, the structure may show the parent alone. Several reference drugs read as weak here; read low effects with care.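 All three lines are high-grade serous ovarian cancer cells differing in chemosensitivity, with OVCAR3 described as the chemosensitive one. Toxicity was scaled between DMSO vehicle wells and fully lysed wells, the score derives from a fitted multi-dose response curve, and the authors counted a score above 5 as drug sensitivity.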

Legend:
Experiment in all cases: drug sensitivity score (DSS2, cytotoxicity, CellTox Green); higher = more cytotoxic / more sensitive; extreme values may be limits of the assay
Settings in all cases: 72 h; doses 0.5, 1, 5 µM
Kuramochi = tested on: Kuramochi
OVCAR4 = tested on: OVCAR4
OVCAR3 = tested on: OVCAR3

SMILES | drug sensitivity score (Kuramochi) [DSS] | drug sensitivity score (OVCAR4) [DSS] | drug sensitivity score (OVCAR3) [DSS]
CC[C@H](C)[C@H]1O[C@]2(CC[C@@H]1C)C[C@@H]1C[C@@H](C/C=C(\C)[C@@H](O[C@H]3C[C@H](OC)C(O[C@H]4C[C@H](OC)[C@@H](O)[C@H](C)O4)[C@H](C)O3)[C@@H](C)/C=C/C=C3\CO[C@@H]4[C@H](O)C(C)=C[C@@H](C(=O)O1)[C@]34O)O2.CO[C@H]1C[C@H](O[C@@H]2/C(C)=C/C[C@@H]3C[C@@H](C[C@]4(CC[C@H](C)[C@@H](C(C)C)O4)O3)OC(=O)[C@@H]3C=C(C)[C@@H](O)[C@H]4OC/C(=C\C=C\[C@@H]2C)[C@]43O)O[C@@H](C)C1O[C@H]1C[C@H](OC)[C@@H](O)[C@H](C)O1 (stereo partly drawn) [Ivermectin] | 0 | 0 | 0
COC(=O)C[C@](O)(CCCC(C)(C)O)C(=O)O[C@@H]1C(OC)=C[C@]23CCCN2CCc2cc4c(cc2[C@H]13)OCO4 [Homoharringtonine] | 0 | 0 | 0
O=C(N/N=C/c1ccc([N+](=O)[O-])o1)c1ccc(O)cc1 [Nifuroxazide] | 0 | 0 | 0
COC(=O)[C@H]1[C@H]2C[C@@H]3c4[nH]c5cc(OC)ccc5c4CCN3C[C@H]2C[C@@H](OC(=O)c2cc(OC)c(OC)c(OC)c2)[C@@H]1OC [Reserpine] | 0 | 0 | 0
Cc1cnc(Nc2ccc(OCCN3CCCC3)cc2)nc1Nc1cccc(S(=O)(=O)NC(C)(C)C)c1 [Fedratinib] | 0.5 | 0 | 0.2
CC(C)(C)c1cc(NC(=O)Nc2ccc(-c3cn4c(n3)sc3cc(OCCN5CCOCC5)ccc34)cc2)no1 [Quizartinib] | 0 | 0 | 0
CN(C)c1nc(N(C)C)nc(N(C)C)n1 [Altretamine] | 0.4 | 0 | 1
FC(F)(F)c1ccc(CNc2ccc(Cc3c[nH]c4ncc(Cl)cc34)cn2)cn1 [Pexidartinib (hydrochloride)] | 0 | 0 | 0
Cc1cn([C@H]2C=C[C@@H](CO)O2)c(=O)[nH]c1=O [Stavudine] | 0 | 0 | 0
Cc1ccc(NC(=O)c2ccc(CN3CCN(C)CC3)cc2)cc1Nc1nc(-c2cccnc2)cs1 [Masitinib] | 0 | 0 | 0
CNCCC=C1c2ccccc2CCc2ccccc21 [Nortriptyline (hydrochloride)] | 4 | 0 | 0
COCC1(CO)C(=O)C2CCN1CC2 (stereo not drawn) [Eprenetapopt] | 0 | 0 | 0
Cc1ccc(Nc2nccc(N(C)c3ccc4c(C)n(C)nc4c3)n2)cc1S(N)(=O)=O [Pazopanib (Hydrochloride)] | 0 | 0 | 0
CC(C)C[C@H](NC(=O)[C@H](Cc1ccccc1)NC(=O)c1cnccn1)B(O)O [Bortezomib] | 7 | 3.3 | 1.8
COc1cc([C@@H]2c3cc4c(cc3[C@@H](O[C@@H]3O[C@@H]5CO[C@@H](C)O[C@H]5[C@H](O)[C@H]3O)[C@H]3COC(=O)[C@H]23)OCO4)cc(OC)c1O [Etoposide] | 0 | 0 | 0
CC[C@@]1(O)C(=O)OCc2c1cc1n(c2=O)Cc2c-1nc1ccccc1c2CCNC(C)C [Belotecan (hydrochloride)] | 0 | 0 | 0
O=c1[nH]cc(F)c(=O)[nH]1 [5-Fluorouracil] | 0 | 0 | 0
CCCCCN(C)CCC(O)(P(=O)(O)O)P(=O)(O)O [Ibandronate (Sodium Monohydrate)] | 0 | 0 | 0
Cc1nc(C(=O)NCC(=O)O)c(O)c2ccc(Oc3ccccc3)cc12 [Roxadustat] | 0 | 0 | 0
Cc1ccc(Nc2nccc(N(C)c3ccc4c(C)n(C)nc4c3)n2)cc1S(N)(=O)=O [Pazopanib] | 0 | 0 | 0
CCCC(=O)Nc1ncnc2c1ncn2[C@@H]1O[C@@H]2COP(=O)(O)O[C@H]2[C@H]1OC(=O)CCC [Bucladesine (sodium)] | 0 | 0 | 0
CN(C)C(=O)c1cc2cnc(Nc3ccc(N4CCNCC4)cn3)nc2n1C1CCCC1 [Ribociclib succinate] | 0 | 0 | 0
C[C@H]1[C@H](OC(=O)CCC(=O)O)O[C@@H]2O[C@@]3(C)CC[C@H]4[C@H](C)CC[C@@H]1[C@@]24OO3 [Artesunate] | 0 | 1.8 | 0

SMILES | drug sensitivity score (Kuramochi) [DSS] | drug sensitivity score (OVCAR4) [DSS] | drug sensitivity score (OVCAR3) [DSS]
COc1cc2c(cc1OC(C)C)[C@H](c1ccc(Cl)cc1)N(c1ccc(N(C)C[C@H]3CC[C@H](N4CCN(C)C(=O)C4)CC3)cc1)C(=O)C2 [NVP-CGM097] | 0 | 0 | 0
N[C@@H](CC(=O)N1CCn2c(nnc2C(F)(F)F)C1)Cc1cc(F)c(F)cc1F [Sitagliptin (phosphate)] | 0 | 0 | 0
CC(=O)Oc1ccccc1C(=O)O [Aspirin] | 0 | 0 | 2.6
CN1CCOC(c2ccccc2)c2ccccc2C1 (stereo not drawn) [Nefopam (hydrochloride)] | 0 | 0 | 0
CNS(=O)(=O)C[C@H]1CC[C@H](N(C)c2[nH]cnc3nccc2-3)CC1 [Oclacitinib (maleate)] | 0 | 0 | 0
CN1CCC[C@@H]1CCO[C@](C)(c1ccccc1)c1ccc(Cl)cc1 [Clemastine (fumarate)] | 0 | 0 | 0.6
Cc1cncc(CN2CCC(=C3c4ccc(Cl)cc4CCc4cccnc43)CC2)c1 [Rupatadine (Fumarate)] | 0 | 0 | 0
CC(=O)[C@H]1CC[C@H]2[C@@H]3CC=C4C[C@@H](O)CC[C@]4(C)[C@H]3CC[C@]12C [Pregnenolone] | 0 | 0 | 0
Oc1ccc(/C=C/c2cc(O)cc(O)c2)cc1 [Resveratrol] | 0 | 0 | 0
CCc1ccc(CCOc2ccc(CC3SC(=O)NC3=O)cc2)nc1 (stereo not drawn) [Pioglitazone] | 0 | 0 | 0
Cn1cnc2c(F)c(Nc3ccc(Br)cc3Cl)c(C(=O)NOCCO)cc21 [Selumetinib (sulfate)] | 0 | 0 | 0
Cc1c(O)c(=O)ccn1C [Deferiprone] | 0 | 0 | 0
Clc1ccc(C(c2ccccc2Cl)C(Cl)Cl)cc1 (stereo not drawn) [Mitotane] | 0 | 0 | 0
CC(=O)O[C@@]12CO[C@@H]1C[C@H](O)[C@@]1(C)C(=O)[C@H](O)C3=C(C)[C@@H](OC(=O)[C@H](O)[C@@H](NC(=O)OC(C)(C)C)c4ccccc4)C[C@@](O)([C@@H](OC(=O)c4ccccc4)[C@H]21)C3(C)C [Docetaxel (Trihydrate)] | 4 | 0 | 5.2
CC/C(=C(\c1ccccc1)c1ccc(OCCN(C)C)cc1)c1ccccc1 [Tamoxifen (Citrate)] | 0 | 0.1 | 0
NC(=O)CC[C@H](N)C(=O)O [L-Glutamine] | 0.1 | 2.7 | 3.3
C=CCc1ccc(O)c(-c2cc(CC=C)ccc2O)c1 [Magnolol] | 0 | 0 | 0
Oc1cc(Cl)ccc1Oc1ccc(Cl)cc1Cl [Triclosan] | 0 | 0 | 2.4
NC[C@H](O)c1ccc(O)c(O)c1 [Norepinephrine (hydrochloride)] | 0 | 0 | 0
Cc1cc2c(C(C)C)c(O)c(O)c(C=O)c2c(O)c1-c1c(C)cc2c(C(C)C)c(O)c(O)c(C=O)c2c1O [Gossypol (acetic acid)] | 0 | 0 | 0
CC[C@@]1(O)C(=O)OCc2c1cc1n(c2=O)Cc2cc3cc(O)ccc3nc2-1 [(S)-10-Hydroxycamptothecin] | 0.4 | 0 | 3.1
C[C@H]1[C@@H](O)O[C@@H]2O[C@@]3(C)CC[C@H]4[C@H](C)CC[C@@H]1[C@@]24OO3 [Dihydroartemisinin] | 0 | 0 | 0
O=C(O)[C@@H]1NC2(CCCCC2)[C@@]2(C(=O)Nc3cc(Cl)ccc32)[C@H]1c1cccc(Cl)c1F [MDM2-IN-1] | 0 | 0 | 0

Look-ups from the list:
CC/C(=C(\c1ccccc1)c1ccc(OCCN(C)C)cc1)c1ccccc1 [Tamoxifen (Citrate)] | drug sensitivity score (OVCAR3) [DSS]: 0
C[C@H]1[C@@H](O)O[C@@H]2O[C@@]3(C)CC[C@H]4[C@H](C)CC[C@@H]1[C@@]24OO3 [Dihydroartemisinin] | drug sensitivity score (Kuramochi) [DSS]: 0
